# Results as given in the supplement of paper PMC10849652.
# Amino acid sequences for entries named in this document (tags omitted). A change or cut given only in a name is not applied to a line headed by its entry.
# UniProt Q8NB91: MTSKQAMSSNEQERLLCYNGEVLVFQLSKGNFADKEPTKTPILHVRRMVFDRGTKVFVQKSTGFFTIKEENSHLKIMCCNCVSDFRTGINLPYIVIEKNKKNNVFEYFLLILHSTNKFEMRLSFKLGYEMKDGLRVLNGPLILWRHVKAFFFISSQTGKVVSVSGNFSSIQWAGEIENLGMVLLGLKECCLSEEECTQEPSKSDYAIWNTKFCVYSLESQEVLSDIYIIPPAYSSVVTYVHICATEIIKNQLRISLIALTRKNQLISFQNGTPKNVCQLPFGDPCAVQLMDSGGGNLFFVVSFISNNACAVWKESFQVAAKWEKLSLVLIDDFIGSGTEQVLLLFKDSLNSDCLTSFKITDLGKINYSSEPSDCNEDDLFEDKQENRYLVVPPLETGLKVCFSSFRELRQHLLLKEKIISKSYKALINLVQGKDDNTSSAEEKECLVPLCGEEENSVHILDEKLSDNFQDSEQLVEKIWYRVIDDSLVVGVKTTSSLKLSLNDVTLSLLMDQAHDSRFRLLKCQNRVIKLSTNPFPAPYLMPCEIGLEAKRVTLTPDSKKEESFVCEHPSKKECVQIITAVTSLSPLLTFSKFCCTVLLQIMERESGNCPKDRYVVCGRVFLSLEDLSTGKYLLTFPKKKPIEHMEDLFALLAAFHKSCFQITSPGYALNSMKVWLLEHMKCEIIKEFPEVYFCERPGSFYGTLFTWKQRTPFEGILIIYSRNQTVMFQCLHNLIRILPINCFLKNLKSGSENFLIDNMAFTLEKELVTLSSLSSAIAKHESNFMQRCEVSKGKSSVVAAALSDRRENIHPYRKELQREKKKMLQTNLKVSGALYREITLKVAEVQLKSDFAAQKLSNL
# UniProt Q96HJ9: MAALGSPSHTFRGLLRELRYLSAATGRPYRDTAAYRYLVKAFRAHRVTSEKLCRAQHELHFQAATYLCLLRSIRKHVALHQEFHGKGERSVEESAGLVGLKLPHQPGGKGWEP
# UniProt Q14320: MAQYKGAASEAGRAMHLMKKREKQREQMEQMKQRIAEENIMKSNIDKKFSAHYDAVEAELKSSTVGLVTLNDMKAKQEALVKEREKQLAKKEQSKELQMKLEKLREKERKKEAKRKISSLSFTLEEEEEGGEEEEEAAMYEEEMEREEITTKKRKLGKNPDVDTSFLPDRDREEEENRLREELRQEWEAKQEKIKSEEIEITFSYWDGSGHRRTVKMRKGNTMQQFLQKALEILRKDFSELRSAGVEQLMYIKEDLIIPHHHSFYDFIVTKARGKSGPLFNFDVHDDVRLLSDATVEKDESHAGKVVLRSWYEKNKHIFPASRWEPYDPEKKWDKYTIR
# UniProt Q13643: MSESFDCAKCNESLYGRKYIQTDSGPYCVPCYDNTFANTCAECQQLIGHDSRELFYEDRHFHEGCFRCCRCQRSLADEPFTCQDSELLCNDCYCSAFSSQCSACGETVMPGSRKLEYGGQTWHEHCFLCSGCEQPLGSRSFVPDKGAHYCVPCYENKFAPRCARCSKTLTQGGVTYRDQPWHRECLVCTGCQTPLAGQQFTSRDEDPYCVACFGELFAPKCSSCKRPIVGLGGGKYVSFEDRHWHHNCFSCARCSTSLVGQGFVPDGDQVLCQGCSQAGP
# UniProt Q9BXW9: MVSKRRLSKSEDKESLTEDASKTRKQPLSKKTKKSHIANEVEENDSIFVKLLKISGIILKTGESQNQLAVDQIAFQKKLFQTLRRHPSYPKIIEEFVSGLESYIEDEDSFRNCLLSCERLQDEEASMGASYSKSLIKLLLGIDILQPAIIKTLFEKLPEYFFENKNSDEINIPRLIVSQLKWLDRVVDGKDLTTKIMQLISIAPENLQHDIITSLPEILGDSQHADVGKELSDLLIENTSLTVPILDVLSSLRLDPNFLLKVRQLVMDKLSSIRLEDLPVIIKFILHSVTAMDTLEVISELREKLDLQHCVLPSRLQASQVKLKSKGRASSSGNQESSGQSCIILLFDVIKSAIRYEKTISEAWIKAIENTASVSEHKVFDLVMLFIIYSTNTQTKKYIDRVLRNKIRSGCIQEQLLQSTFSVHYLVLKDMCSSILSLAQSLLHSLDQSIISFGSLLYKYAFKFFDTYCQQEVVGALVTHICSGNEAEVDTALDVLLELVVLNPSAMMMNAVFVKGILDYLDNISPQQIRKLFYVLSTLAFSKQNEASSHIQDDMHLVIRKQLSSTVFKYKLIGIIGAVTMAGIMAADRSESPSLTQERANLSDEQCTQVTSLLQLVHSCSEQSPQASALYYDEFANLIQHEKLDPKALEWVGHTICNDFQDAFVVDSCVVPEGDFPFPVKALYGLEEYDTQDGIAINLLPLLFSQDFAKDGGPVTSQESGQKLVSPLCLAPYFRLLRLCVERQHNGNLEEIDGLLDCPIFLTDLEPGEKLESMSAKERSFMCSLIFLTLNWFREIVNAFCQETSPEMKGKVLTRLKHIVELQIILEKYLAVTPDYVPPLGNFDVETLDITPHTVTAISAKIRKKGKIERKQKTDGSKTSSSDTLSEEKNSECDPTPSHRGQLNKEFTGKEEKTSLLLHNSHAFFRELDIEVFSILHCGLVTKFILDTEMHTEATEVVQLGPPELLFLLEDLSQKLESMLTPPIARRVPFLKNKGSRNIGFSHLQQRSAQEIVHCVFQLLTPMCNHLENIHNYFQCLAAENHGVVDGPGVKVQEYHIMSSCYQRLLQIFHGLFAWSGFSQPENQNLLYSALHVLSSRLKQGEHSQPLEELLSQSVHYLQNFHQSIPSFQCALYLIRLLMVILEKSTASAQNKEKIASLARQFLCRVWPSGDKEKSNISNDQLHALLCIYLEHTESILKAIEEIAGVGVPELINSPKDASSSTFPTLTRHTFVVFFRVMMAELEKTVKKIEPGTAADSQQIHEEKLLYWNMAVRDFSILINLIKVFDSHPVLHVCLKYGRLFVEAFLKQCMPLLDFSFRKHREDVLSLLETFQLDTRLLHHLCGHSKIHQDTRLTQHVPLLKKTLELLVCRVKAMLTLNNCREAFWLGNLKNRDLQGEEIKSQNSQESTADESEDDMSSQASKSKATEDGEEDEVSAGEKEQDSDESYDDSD
# UniProt Q9NVI1: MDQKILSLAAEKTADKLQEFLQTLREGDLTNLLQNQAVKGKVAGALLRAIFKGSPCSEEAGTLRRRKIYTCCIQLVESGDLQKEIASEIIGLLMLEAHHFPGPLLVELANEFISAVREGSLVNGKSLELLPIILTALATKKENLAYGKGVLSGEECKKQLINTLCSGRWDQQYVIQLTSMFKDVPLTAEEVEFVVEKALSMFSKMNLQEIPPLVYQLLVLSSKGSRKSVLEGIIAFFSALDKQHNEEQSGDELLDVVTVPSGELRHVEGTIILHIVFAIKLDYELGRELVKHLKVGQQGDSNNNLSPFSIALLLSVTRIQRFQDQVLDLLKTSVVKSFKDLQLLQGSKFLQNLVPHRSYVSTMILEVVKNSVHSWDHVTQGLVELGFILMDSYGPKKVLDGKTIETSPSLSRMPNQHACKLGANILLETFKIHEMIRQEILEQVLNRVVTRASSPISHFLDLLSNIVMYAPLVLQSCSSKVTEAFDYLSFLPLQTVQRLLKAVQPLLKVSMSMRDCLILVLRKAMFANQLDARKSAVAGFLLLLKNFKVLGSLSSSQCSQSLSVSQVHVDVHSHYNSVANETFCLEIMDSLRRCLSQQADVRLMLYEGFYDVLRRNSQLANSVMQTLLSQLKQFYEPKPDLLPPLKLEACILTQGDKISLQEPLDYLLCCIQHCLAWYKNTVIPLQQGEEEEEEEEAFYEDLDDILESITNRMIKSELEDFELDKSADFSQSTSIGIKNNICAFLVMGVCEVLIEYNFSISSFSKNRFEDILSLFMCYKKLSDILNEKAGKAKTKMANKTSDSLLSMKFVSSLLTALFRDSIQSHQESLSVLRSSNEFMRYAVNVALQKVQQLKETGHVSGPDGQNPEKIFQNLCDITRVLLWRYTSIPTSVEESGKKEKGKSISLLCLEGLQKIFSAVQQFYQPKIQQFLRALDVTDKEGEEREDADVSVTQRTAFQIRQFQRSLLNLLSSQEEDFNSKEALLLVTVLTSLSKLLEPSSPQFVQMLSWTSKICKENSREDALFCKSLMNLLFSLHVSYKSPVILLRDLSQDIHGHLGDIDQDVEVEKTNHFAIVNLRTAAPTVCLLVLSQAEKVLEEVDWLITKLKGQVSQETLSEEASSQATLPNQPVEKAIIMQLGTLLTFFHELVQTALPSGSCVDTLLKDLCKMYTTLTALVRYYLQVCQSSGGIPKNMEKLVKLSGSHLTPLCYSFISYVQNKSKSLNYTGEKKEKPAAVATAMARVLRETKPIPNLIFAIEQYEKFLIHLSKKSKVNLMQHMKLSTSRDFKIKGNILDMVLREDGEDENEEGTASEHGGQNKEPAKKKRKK
# UniProt O95363: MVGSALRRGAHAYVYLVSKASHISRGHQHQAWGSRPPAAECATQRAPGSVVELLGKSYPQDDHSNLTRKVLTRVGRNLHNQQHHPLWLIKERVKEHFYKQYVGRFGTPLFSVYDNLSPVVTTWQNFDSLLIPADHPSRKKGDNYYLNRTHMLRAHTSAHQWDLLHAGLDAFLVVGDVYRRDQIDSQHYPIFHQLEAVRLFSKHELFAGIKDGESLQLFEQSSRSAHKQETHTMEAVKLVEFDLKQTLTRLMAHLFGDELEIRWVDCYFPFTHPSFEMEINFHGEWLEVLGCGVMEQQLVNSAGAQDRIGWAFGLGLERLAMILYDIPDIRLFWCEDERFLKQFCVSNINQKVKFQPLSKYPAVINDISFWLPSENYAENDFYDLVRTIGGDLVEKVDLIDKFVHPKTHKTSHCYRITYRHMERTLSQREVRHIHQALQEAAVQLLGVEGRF
# UniProt Q86UX7, whole entry, looked up: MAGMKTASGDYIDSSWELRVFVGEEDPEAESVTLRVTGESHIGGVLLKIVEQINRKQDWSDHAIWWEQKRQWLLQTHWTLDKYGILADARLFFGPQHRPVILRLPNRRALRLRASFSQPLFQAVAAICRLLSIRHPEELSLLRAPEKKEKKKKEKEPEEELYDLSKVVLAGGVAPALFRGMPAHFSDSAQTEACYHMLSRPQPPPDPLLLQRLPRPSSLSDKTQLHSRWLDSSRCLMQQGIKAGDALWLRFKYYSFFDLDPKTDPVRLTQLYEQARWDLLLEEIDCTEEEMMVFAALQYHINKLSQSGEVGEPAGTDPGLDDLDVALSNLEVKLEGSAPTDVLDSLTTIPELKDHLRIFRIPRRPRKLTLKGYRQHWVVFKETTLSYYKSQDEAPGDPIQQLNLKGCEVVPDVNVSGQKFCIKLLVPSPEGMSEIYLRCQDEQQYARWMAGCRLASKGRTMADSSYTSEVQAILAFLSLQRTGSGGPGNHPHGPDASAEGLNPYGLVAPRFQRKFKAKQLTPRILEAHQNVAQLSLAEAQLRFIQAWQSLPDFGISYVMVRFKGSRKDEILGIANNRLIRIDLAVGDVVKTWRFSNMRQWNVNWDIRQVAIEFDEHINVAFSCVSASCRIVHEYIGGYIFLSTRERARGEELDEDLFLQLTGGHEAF
# UniProt Q8N0W3: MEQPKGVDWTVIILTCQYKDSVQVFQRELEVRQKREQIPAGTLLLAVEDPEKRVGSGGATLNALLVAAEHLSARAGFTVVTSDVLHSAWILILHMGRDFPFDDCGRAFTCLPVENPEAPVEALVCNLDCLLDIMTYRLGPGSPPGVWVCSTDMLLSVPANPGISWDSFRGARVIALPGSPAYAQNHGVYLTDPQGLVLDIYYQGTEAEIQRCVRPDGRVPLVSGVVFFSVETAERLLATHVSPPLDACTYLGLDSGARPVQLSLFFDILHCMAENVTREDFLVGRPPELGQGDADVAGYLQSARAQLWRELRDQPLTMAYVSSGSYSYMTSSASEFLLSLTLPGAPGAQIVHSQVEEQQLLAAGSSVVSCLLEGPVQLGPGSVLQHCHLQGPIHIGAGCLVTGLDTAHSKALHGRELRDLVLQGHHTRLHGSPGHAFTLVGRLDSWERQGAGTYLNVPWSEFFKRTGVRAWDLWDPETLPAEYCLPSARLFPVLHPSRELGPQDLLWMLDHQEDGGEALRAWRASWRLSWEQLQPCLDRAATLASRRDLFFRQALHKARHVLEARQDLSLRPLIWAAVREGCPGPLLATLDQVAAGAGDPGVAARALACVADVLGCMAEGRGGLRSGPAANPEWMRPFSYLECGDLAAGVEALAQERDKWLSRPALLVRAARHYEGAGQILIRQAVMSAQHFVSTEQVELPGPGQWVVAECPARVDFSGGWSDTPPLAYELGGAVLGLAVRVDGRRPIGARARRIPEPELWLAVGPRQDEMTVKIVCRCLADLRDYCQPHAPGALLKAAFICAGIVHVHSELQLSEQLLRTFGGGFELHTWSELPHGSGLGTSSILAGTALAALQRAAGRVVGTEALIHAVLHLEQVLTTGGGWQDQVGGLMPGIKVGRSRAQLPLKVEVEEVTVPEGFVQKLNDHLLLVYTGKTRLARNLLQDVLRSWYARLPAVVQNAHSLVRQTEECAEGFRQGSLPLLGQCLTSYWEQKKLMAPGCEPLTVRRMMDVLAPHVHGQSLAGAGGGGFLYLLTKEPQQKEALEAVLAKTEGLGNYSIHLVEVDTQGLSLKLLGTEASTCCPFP
# This is one part of the list.
# Assays:
# Assay in all cases: log2 fold change, soluble protein after heating vs DMSO (PISA); higher = thermal stabilisation; K562 cells, 10 uM, 30 min; active = over 0.2 and 3.5 SD of the protein, either way, in both replicates (recomputed)
# [1] = compound: COC1=CC=C(C=C1)CN2C=CC3=C2C=C(C=C3)C(=O)NO
# Method in brief: (§1)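 K562 cells at 2×10^6 cells/mL were given 10 μM compound for 30 min. Aliquots then went through 3 min of heating across 48°C-58°C, were pooled, and were extracted in PBS with 0.5% NP-40 at 4°C, and the supernatant after 21,000xg for 90 min was quantified by TMTpro 16plex LC-MS/MS with channel sums equalised. Thermal stability relative to control samples, from duplicates, is given as log2 fold change.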
# filanesib = compound: CON(C)C(=O)N1N=C(c2cc(F)ccc2F)S[C@@]1(CCCN)c1ccccc1 [filanesib]
# Method in brief: as §1
# zotarolimus = compound: CO[C@H]1C[C@@H]2CC[C@@H](C)[C@@](O)(O2)C(=O)C(=O)N2CCCC[C@H]2C(=O)O[C@H]([C@H](C)C[C@@H]2CC[C@H](n3cnnn3)[C@H](OC)C2)CC(=O)[C@H](C)/C=C(\C)[C@@H](O)[C@@H](OC)C(=O)[C@H](C)C[C@H](C)/C=C/C=C/C=C/1C [zotarolimus]
# Method in brief: as §1
# idasanutlin = compound: COc1cc(C(=O)O)ccc1NC(=O)[C@@H]1N[C@@H](CC(C)(C)C)[C@](C#N)(c2ccc(Cl)cc2F)[C@H]1c1cccc(Cl)c1F [idasanutlin]
# Method in brief: as §1
# alisertib = compound: COc1cc(Nc2ncc3c(n2)-c2ccc(Cl)cc2C(c2c(F)cccc2OC)=NC3)ccc1C(=O)O [alisertib]
# Method in brief: as §1
# [2] = compound: COc1cc2nc(-c3cc(F)ccc3O)nc(N[C@@H]3CNC[C@H]3C(C)(C)O)c2cc1OC
# Method in brief: as §1
# gefitinib = compound: COc1cc2ncnc(Nc3ccc(F)c(Cl)c3)c2cc1OCCCN1CCOCC1 [gefitinib]
# Method in brief: as §1
# [3] = compound: COc1cccc2cc(-c3nc([C@H]4CC[C@H](C(=O)O)CC4)n4ncnc(N)c34)[nH]c12
# Method in brief: as §1
# lapatinib = compound: CS(=O)(=O)CCNCc1ccc(-c2ccc3ncnc(Nc4ccc(OCc5cccc(F)c5)c(Cl)c4)c3c2)o1 [lapatinib]
# Method in brief: as §1
# pictilisib = compound: CS(=O)(=O)N1CCN(Cc2cc3nc(-c4cccc5[nH]ncc45)nc(N4CCOCC4)c3s2)CC1 [pictilisib]
# Method in brief: as §1
# [4] = compound: CS(=O)(=O)c1ccc(-c2cnc(N)c(C(=O)Nc3ccccc3)n2)cc1
# Method in brief: as §1
# crizotinib = compound: C[C@@H](Oc1cc(-c2cnn(C3CCNCC3)c2)cnc1N)c1c(Cl)ccc(F)c1Cl [crizotinib]
# Method in brief: as §1
# [5] = compound: C[C@@H]1COCCN1C2=NC(=NC(=C2)C3(CC3)S(=O)(=O)C)C4=C5C=CNC5=CC=C4
# Method in brief: as §1
# [6] = compound: C[C@H](C1=CC=C(C=C1)C(=O)NC2=C3C=CNC3=NC=C2)N
# Method in brief: as §1
# duvelisib = compound: C[C@H](Nc1ncnc2nc[nH]c12)c1cc2cccc(Cl)c2c(=O)n1-c1ccccc1 [duvelisib]
# Method in brief: as §1
# gandotinib = compound: Cc1cc(Nc2cc(CN3CCOCC3)c3nc(C)c(Cc4ccc(Cl)cc4F)n3n2)n[nH]1 [gandotinib]
# Method in brief: as §1
# tozasertib = compound: Cc1cc(Nc2cc(N3CCN(C)CC3)nc(Sc3ccc(NC(=O)C4CC4)cc3)n2)n[nH]1 [tozasertib]
# Method in brief: as §1
# [7] = compound: Cc1cc(SCc2sc(-c3ccc(C(F)(F)F)cc3)nc2C)ccc1OCC(=O)O
# Method in brief: as §1
# doramapimod = compound: Cc1ccc(-n2nc(C(C)(C)C)cc2NC(=O)Nc2ccc(OCCN3CCOCC3)c3ccccc23)cc1 [doramapimod]
# Method in brief: as §1
# ispinesib = compound: Cc1ccc(C(=O)N(CCCN)[C@@H](c2nc3cc(Cl)ccc3c(=O)n2Cc2ccccc2)C(C)C)cc1 [ispinesib]
# Method in brief: as §1
Target,log2 fold change [1],log2 fold change (filanesib),log2 fold change (zotarolimus),log2 fold change (idasanutlin),log2 fold change (alisertib),log2 fold change [2],log2 fold change (gefitinib),log2 fold change [3],log2 fold change (lapatinib),log2 fold change (pictilisib),log2 fold change [4],log2 fold change (crizotinib),log2 fold change [5],log2 fold change [6],log2 fold change (duvelisib),log2 fold change (gandotinib),log2 fold change (tozasertib),log2 fold change [7],log2 fold change (doramapimod),log2 fold change (ispinesib)
FANCB (UniProt Q8NB91),inactive: -0.03,inactive: -0.02,inactive: -0.038,inactive: -0.012,inactive: 0.119,inactive: -0.017,inactive: 0.03,inactive: 0.035,inactive: 0.06,inactive: -0.078,inactive: -0.025,inactive: 0.07,inactive: -0.032,inactive: -0.043,inactive: -0.056,inactive: -0.034,inactive: -0.053,inactive: -0.06,inactive: -0.005,inactive: -0.013
FDXR isoform 7 (UniProt P22570),inactive: -0.005,inactive: -0.122,inactive: 0.021,inactive: -0.179,inactive: -0.019,inactive: 0.06,inactive: 0.048,inactive: 0.074,inactive: -0.057,inactive: 0.201,inactive: 0.038,inactive: -0.036,inactive: 0.117,inactive: -0.01,,inactive: -0.064,,inactive: 0.023,inactive: -0.013,inactive: -0.138
FMC1 (UniProt Q96HJ9),inactive: 0.068,inactive: -0.037,inactive: -0.101,inactive: -0.091,inactive: -0.042,inactive: -0.008,inactive: 0.06,inactive: 0.023,inactive: -0.018,inactive: 0.024,inactive: 0.021,inactive: 0.195,inactive: -0.157,inactive: 0.082,,inactive: 0.024,,inactive: -0.018,inactive: -0.137,inactive: -0.314
FBXO5 (UniProt Q9UKT4),inactive: 0.034,inactive: 0.023,inactive: 0.005,inactive: 0.024,inactive: -0.04,inactive: 0.008,inactive: -0.009,inactive: 0.007,inactive: 0.035,inactive: -0.082,inactive: -0.067,inactive: 0.027,inactive: -0.04,inactive: -0.082,inactive: 0.021,inactive: -0.011,inactive: 0.012,inactive: -0.002,inactive: -0.004,inactive: -0.005
FBXO7 (UniProt Q9Y3I1),inactive: 0.037,inactive: -0.069,inactive: -0.026,inactive: -0.04,inactive: -0.082,inactive: 0.082,inactive: -0.023,inactive: 0.011,inactive: -0.082,inactive: 0.036,inactive: 0.038,inactive: 0.041,inactive: 0.061,inactive: -0.023,,inactive: -0.194,,inactive: 0.083,inactive: -0.029,inactive: 0.098
FIP1L1 (UniProt Q6UN15),inactive: -0.098,inactive: 0.113,inactive: -0.05,inactive: 0.094,inactive: -0.097,inactive: -0.069,inactive: -0.016,inactive: 0.104,inactive: 0.051,inactive: -0.052,inactive: -0.086,inactive: -0.035,inactive: -0.074,inactive: -0.02,inactive: -0.052,inactive: 0.051,inactive: -0.067,inactive: -0.076,inactive: 0.006,inactive: -0.022
FAM50A (UniProt Q14320),inactive: -0.019,inactive: -0.008,inactive: 0.026,inactive: -0.025,inactive: -0.003,inactive: -0.026,inactive: 0.039,inactive: -0.025,inactive: 0.022,inactive: 0.056,inactive: 0.009,inactive: 0.129,inactive: 0.026,inactive: -0.06,,inactive: 0.147,,inactive: 0.092,inactive: -0.061,inactive: 0.095
FHL3 (UniProt Q13643),inactive: -0.032,inactive: 0.039,inactive: -0.058,inactive: 0.001,inactive: -0.067,inactive: 0.005,inactive: -0.02,inactive: -0.002,inactive: -0.027,inactive: 0.003,inactive: 0.054,inactive: 0.091,inactive: 0.047,inactive: -0.06,inactive: 0.008,inactive: 0.036,inactive: -0.04,inactive: -0.062,inactive: -0.037,inactive: 0.041
FAM32A (UniProt Q9Y421),inactive: 0.416,inactive: 0.163,inactive: 0.009,inactive: 0.05,inactive: -0.014,inactive: 0.035,inactive: -0.311,inactive: -0.038,inactive: 0.035,inactive: 0.021,inactive: 0.101,inactive: 0.024,inactive: -0.17,inactive: 0.156,inactive: -0.056,inactive: -0.023,inactive: -0.011,inactive: 0,inactive: -0.115,inactive: -0.05
FANCD2 isoform 1 (UniProt Q9BXW9),inactive: 0.054,inactive: -0.078,inactive: -0.007,inactive: -0.062,inactive: -0.037,inactive: 0.053,inactive: -0.033,inactive: 0.031,inactive: -0.025,inactive: 0.123,inactive: -0.056,inactive: -0.052,inactive: 0.127,inactive: -0.014,,inactive: -0.135,,inactive: 0.034,inactive: 0.004,inactive: -0.096
FANCI (UniProt Q9NVI1),inactive: 0.004,inactive: -0.189,inactive: -0.01,inactive: -0.014,inactive: -0.015,inactive: -0.113,inactive: -0.034,inactive: 0.033,inactive: 0.001,inactive: 0,inactive: -0.074,inactive: -0.138,inactive: 0.139,inactive: 0,,inactive: -0.14,,inactive: 0.038,inactive: -0.021,inactive: -0.071
FARS2 (UniProt O95363),inactive: -0.171,inactive: -0.122,inactive: -0.049,inactive: -0.076,inactive: 0.137,inactive: 0.033,inactive: -0.114,inactive: 0.113,inactive: -0.061,inactive: 0.071,inactive: 0.004,inactive: -0.043,inactive: 0.088,inactive: 0.041,,inactive: -0.021,,inactive: 0.06,inactive: -0.023,inactive: -0.157
FBL (UniProt P22087),inactive: -0.154,inactive: 0.664,inactive: 0.034,inactive: 0.441,inactive: 0.006,inactive: 0.077,inactive: 0.059,inactive: -0.069,inactive: 0.11,inactive: -0.093,inactive: -0.054,inactive: 0.075,inactive: -0.266,inactive: 0.379,,inactive: 0.124,,inactive: -0.01,inactive: 0.279,inactive: 0.097
FDFT1 (UniProt P37268),inactive: 0.123,active: 0.401,inactive: 0.014,inactive: 0.013,inactive: 0.008,inactive: -0.052,inactive: -0.01,inactive: 0.042,inactive: -0.023,inactive: 0,inactive: -0.009,inactive: 0.105,inactive: -0.032,inactive: -0.065,active: 0.32,inactive: 0.061,,inactive: 0.174,inactive: 0.02,inactive: 0.077
FERMT3 (UniProt Q86UX7),inactive: 0.046,inactive: -0.037,inactive: 0.033,inactive: -0.068,inactive: -0.104,inactive: 0,inactive: -0.007,inactive: 0.001,inactive: -0.006,inactive: 0.009,inactive: 0.038,inactive: -0.091,inactive: 0.02,inactive: -0.04,,inactive: -0.064,,inactive: 0.057,inactive: 0.001,inactive: -0.04
FBXO42 (UniProt Q6P3S6),inactive: -0.037,inactive: 0.011,inactive: 0.025,inactive: 0.009,inactive: 0.047,inactive: -0.054,inactive: 0.036,inactive: 0.07,inactive: 0.063,inactive: -0.088,inactive: 0.077,active: 0.4,inactive: 0.127,inactive: -0.064,,inactive: -0.022,,inactive: 0.063,inactive: 0.01,inactive: -0.015
FCSK isoform 2 (UniProt Q8N0W3),inactive: 0.047,inactive: -0.021,inactive: -0.008,inactive: -0.055,inactive: -0.153,inactive: -0.002,inactive: 0.04,inactive: 0.04,inactive: 0.059,inactive: 0.004,inactive: -0.027,inactive: -0.002,inactive: 0.06,inactive: -0.022,inactive: -0.002,inactive: 0.028,inactive: -0.018,inactive: 0.006,inactive: 0.031,inactive: 0.033

# Given as tab-separated lines: entries from further up
Target	log2 fold change [1]	log2 fold change (filanesib)	log2 fold change (zotarolimus)	log2 fold change (idasanutlin)	log2 fold change (alisertib)	log2 fold change [2]	log2 fold change (gefitinib)	log2 fold change [3]	log2 fold change (lapatinib)	log2 fold change (pictilisib)	log2 fold change [4]	log2 fold change (crizotinib)	log2 fold change [5]	log2 fold change [6]	log2 fold change (duvelisib)	log2 fold change (gandotinib)	log2 fold change (tozasertib)	log2 fold change [7]	log2 fold change (doramapimod)	log2 fold change (ispinesib)
FBXO7 (UniProt Q9Y3I1)	inactive: 0.037	inactive: -0.069	inactive: -0.026	inactive: -0.04	inactive: -0.082	inactive: 0.082	inactive: -0.023	inactive: 0.011	inactive: -0.082	inactive: 0.036	inactive: 0.038	inactive: 0.041	inactive: 0.061	inactive: -0.023		inactive: -0.194		inactive: 0.083	inactive: -0.029	inactive: 0.098
FIP1L1 (UniProt Q6UN15)	inactive: -0.098	inactive: 0.113	inactive: -0.05	inactive: 0.094	inactive: -0.097	inactive: -0.069	inactive: -0.016	inactive: 0.104	inactive: 0.051	inactive: -0.052	inactive: -0.086	inactive: -0.035	inactive: -0.074	inactive: -0.02	inactive: -0.052	inactive: 0.051	inactive: -0.067	inactive: -0.076	inactive: 0.006	inactive: -0.022
